Patent publication US9066958B2 (priority 2006, dated 2015)

What was measured:
[1] = Drop of liquid applied onto a nipple: adherence, no drip-off within 10 seconds; details: one drop applied onto a nipple, direct experimental observation
[2] = Sensory observation of vehicle liquids (taste, mouth-feel); details: direct experimental observation

SMILES	Experiment drop behavior on nipple [1]	mouth-feel [2]
O [Water]	drips off	none
CC(=O)Oc1c(C)c(C)c2c(c1C)CCC(C)(CCC[C@H](C)CCC[C@H](C)CCCC(C)C)O2 (stereo partly drawn) [Eitamin E acetate oil]	Adheres	Oily
CCO [Ethanol]	drips off	no feel
